Results are given in words; binding and its absence hold for the method and conditions named. Some results given as binding are weak or reduced against the parent protein; the word gives no strength.
Target: T1, DegP PDZ1-PDZ2 domain construct (DegP^261-448) (E. coli K12) (UniProt P0C0V0)
T1 sequence: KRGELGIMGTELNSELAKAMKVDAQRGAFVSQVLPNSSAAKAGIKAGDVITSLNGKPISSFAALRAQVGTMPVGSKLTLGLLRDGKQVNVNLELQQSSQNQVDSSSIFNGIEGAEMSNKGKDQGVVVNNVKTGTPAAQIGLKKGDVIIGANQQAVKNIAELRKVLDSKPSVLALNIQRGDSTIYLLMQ
Assay: NMR titration; substrates (p23, β-casein, nonactivating reporter peptide) added to the DegP PDZ domains (fig. S12); β-casein up to half equimolar ratio; both purified

B1: β-casein (protein, UniProt P02666 16-224)
chain: RELEELNVPGEIVESLSSSEESITRINKKIEKFQSEEQQQTEDELQDKIHPFAQTQSLVYPFPGPIPNSLPQNIPPLTQTPVVVPPFLQPEVMGVSKVKEAMAPKHKEMPFPKYPVEPFTESQSLTLTDVENLHLPLPLLQSWMHQPHQPLPPTVMFPPQSVLSLSQSKVLPVPQKAVPYPQRDMPIQAFLLYQEPVLGPVRGPFPIIV
  binding: binds

## KASPVSLGYD (Abz at the N-terminus; Y^NO2 at position 9) [fluorescent nonactivating reporter peptide (Abz-…^NO2D)]
  binding: no binding
